# PubChem BioAssay AID1224828 – NIAID – 2016
# Purpose: 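Knock-downs that increase or decrease LPS-induced p65 nuclear translocation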 (primary screen)
# System: mouse RAW264.7 G9 macrophage reporter cells (GFP-p65, Tnf promoter-mCherry)
# Knock-down reagent: siRNA pool against mouse genes, 100 nM
# Timing: 2 days siRNA transfection, then 40 min LPS before fixation
# Treatment: LPS (Salmonella minnesota R595) at 10 ng/ml
# Detection: 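Imaged p65 nuclear translocation ratio, normalised to the plate median, converted to robust z-scores and averaged across two replicates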
# Scale: p65 translocation robust z-score: higher = more nuclear NF-kappaB p65 after LPS than the plate median; nuclear/cytoplasmic p65 ratio: higher = more nuclear NF-kappaB p65
# Active means: 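Active if robust z is above 3.3 (negative regulators) or below -1.56, the Tlr4 control median (positive regulators); activity score 50 or more; control wells not called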
# Meaning of the calls: active = hit (p65 shift raised or lowered); inactive = no clear change
# In all, the deposit lists about 17,000 reagents; this is a part drawn at random. 762 of them (4.5%) count as active. 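Active calls include both raised and lowered p65 entry, mostly lowered; wells with fewer than 50 cells lack a z-score.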 Raw values vary from plate to plate and are shown uncorrected. Unmarked entries are inactive. A reagent listed more than once was tested more than once; the source does not tell the runs apart. Reagent sequences are not shown.
gene knocked down,p65 translocation robust z-score,"nuclear/cytoplasmic p65 ratio, rep 1","nuclear/cytoplasmic p65 ratio, rep 2",low cell count flag
"Mrgprx1 (MAS-related GPR, member X1)",-0.99,1.66,1.41,enough cells to score
"Mrgprx1 (MAS-related GPR, member X1)",-1.22,1.37,1.41,enough cells to score
Tex9 (testis expressed gene 9),1.61,1.67,1.29,enough cells to score
"Nr4a2 (nuclear receptor subfamily 4, group A, member 2)",1.22,1.58,1.6,enough cells to score
Rhoq (ras homolog family member Q),-0.42,1.64,1.28,enough cells to score
Tnip2 (TNFAIP3 interacting protein 2),1.74,2.15,1.38,enough cells to score
Epb41 (erythrocyte membrane protein band 4.1),0.48,1.42,1.42,enough cells to score
Dennd2c (DENN domain containing 2C),-0.56,1.28,1.48,enough cells to score
Kcnj14,-0.59,1.36,1.36,enough cells to score
Bcr (BCR activator of RhoGEF and GTPase),,1.52,1.34,fewer than 50 cells per well; well left out of scoring
"Manba (mannosidase, beta A, lysosomal)",1.1,1.65,1.42,enough cells to score
Hpgd (hydroxyprostaglandin dehydrogenase 15 (NAD)),1.14,1.89,1.64,enough cells to score
Mecp2 (methyl CpG binding protein 2),,1.18,1.25,fewer than 50 cells per well; well left out of scoring
Inpp5d (inositol polyphosphate-5-phosphatase D),-0.46,1.38,1.36,enough cells to score
Plekhs1 (pleckstrin homology domain containing S1),-1.85 (active),1.24,1.22,enough cells to score
1700084P21Rik (RIKEN cDNA 1700084P21 gene),-0.89,1.28,1.3,enough cells to score
"Ppp6r2 (protein phosphatase 6, regulatory subunit 2)",-0.57,1.4,1.41,enough cells to score
Ttyh3 (tweety family member 3),,1.09,1.13,fewer than 50 cells per well; well left out of scoring
Kank4 (KN motif and ankyrin repeat domains 4),-1.8 (active),1.19,1.36,enough cells to score
"Clec1b (C-type lectin domain family 1, member b)",-1.19,1.53,1.23,enough cells to score
Lsm14a (LSM14A mRNA processing body assembly factor),,1.32,1.22,fewer than 50 cells per well; well left out of scoring

A stretch taken from the entries so far:
gene knocked down,p65 translocation robust z-score,"nuclear/cytoplasmic p65 ratio, rep 1","nuclear/cytoplasmic p65 ratio, rep 2",low cell count flag
Tex9 (testis expressed gene 9),1.61,1.67,1.29,enough cells to score
"Nr4a2 (nuclear receptor subfamily 4, group A, member 2)",1.22,1.58,1.6,enough cells to score
Rhoq (ras homolog family member Q),-0.42,1.64,1.28,enough cells to score
Tnip2 (TNFAIP3 interacting protein 2),1.74,2.15,1.38,enough cells to score
Epb41 (erythrocyte membrane protein band 4.1),0.48,1.42,1.42,enough cells to score
Dennd2c (DENN domain containing 2C),-0.56,1.28,1.48,enough cells to score

More reagents follow.
gene knocked down,p65 translocation robust z-score,"nuclear/cytoplasmic p65 ratio, rep 1","nuclear/cytoplasmic p65 ratio, rep 2",low cell count flag
Vmn1r171 (vomeronasal 1 receptor 171),,1.25,1.27,fewer than 50 cells per well; well left out of scoring
"Pde2a (phosphodiesterase 2A, cGMP-stimulated)",0.49,1.56,1.43,enough cells to score
Ywhaq,-0.55,1.44,1.42,enough cells to score
Chst14 (carbohydrate sulfotransferase 14),-2.13 (active),1.21,1.29,enough cells to score
Hnrnpab (heterogeneous nuclear ribonucleoprotein A/B),-0.69,1.39,1.58,enough cells to score
Elp2 (elongator acetyltransferase complex subunit 2),-0.12,1.44,1.63,enough cells to score
Dtymk (deoxythymidylate kinase),0.1,1.65,1.44,enough cells to score
Cimap1a (ciliary microtubule associated protein 1A),-0.34,1.6,1.53,enough cells to score
"Kcnj3 (potassium inwardly-rectifying channel, subfamily J, member 3)",0.49,1.66,1.57,enough cells to score
Nkx2-6 (NK2 homeobox 6),-1.18,1.5,1.39,enough cells to score
Il12a (interleukin 12a),0.29,1.5,1.38,enough cells to score
Cops5 (COP9 signalosome subunit 5),0.72,1.49,1.55,enough cells to score
Or4m1 (olfactory receptor family 4 subfamily M member 1),-0.65,1.35,1.22,enough cells to score
Kcna7,0.96,1.63,1.48,enough cells to score
Cradd (CASP2 and RIPK1 domain containing adaptor with death domain),-0.03,1.53,1.32,enough cells to score
"Syne3 (spectrin repeat containing, nuclear envelope family member 3)",,1.12,1.14,fewer than 50 cells per well; well left out of scoring
Bik (BCL2-interacting killer),1.33,1.78,1.84,enough cells to score
Sacm1l (SAC1 suppressor of actin mutations 1-like (yeast)),0.24,1.45,1.22,enough cells to score
Lpar1 (lysophosphatidic acid receptor 1),,1.61,1.6,fewer than 50 cells per well; well left out of scoring
